Literature values in publication PMC3447978, “High-Throughput 1,536-Well Fluorescence Polarization Assays for α1-Acid Glycoprotein and Human Serum Albumin Binding” (PLoS ONE, 2012).

Test system: AGP and HSA
Settings: cited from earlier work

SMILES | Protein Binding Preference
CCCCC1C(=O)N(c2ccccc2)N(c2ccccc2)C1=O [Phenylbutazone, phenylbutazone] | HSA

Same assay, conditions: validation set; based on literature; cited from earlier work

SMILES | Protein Binding Preference
C=CCc1ccccc1OCC(O)CNC(C)C (centres unmarked) [Alprenolol, alprenolol] | AGP
CN(C)CCC=C1c2ccccc2CCc2ccccc21 [Amitriptyline, amitriptyline] | AGP
CN(C)CCCN1c2ccccc2Sc2ccc(Cl)cc21 [Chlorpromazine, chlorpromazine] | AGP
OCCN(CCO)c1nc(N2CCCCC2)c2nc(N(CCO)CCO)nc(N3CCCCC3)c2n1 [Dipyridamole, dipyridamole] | AGP
CN(C)CCCN1c2ccccc2CCc2ccccc21 [Imipramine, imipramine] | AGP
COc1ccc2c(c1)c(CC(=O)O)c(C)n2C(=O)c1ccc(Cl)cc1 [Indomethacin, indomethacin] | HSA
CC(C)NCC(O)COc1cccc2ccccc12 (centres unmarked) [Propranolol, propranolol] | AGP
